Experimental findings from publication PMC7862700 are described below.

In this test the target is SPI1 (UniProt P17947). The experiment in a line: DAPPL (digital affinity profiling via proximity ligation, sequencing). As to conditions: 10 mM Tris-HCl pH 7.5, 50 mM NaCl, 1 mM DTT, 4% glycerol, room temperature, 30 min; GST-TFs on glutathione beads, 16-mer random dsDNA library, 0.1% …; high values mean tight binding; double strand, one strand shown; scale: fold enrichment (6-mer frequency, TF over GST control).

The entries are a selection whose mix differs from that of the whole data set. At the low end of the ranking, values are background and their order means little.

For GGGGGC, the binding signal came out at 0.567.

AGGCAG had a binding signal of 0.517. The same measure for GCGTCG: 0.83; for ATTGGA: 0.88; for GATCGT: 0.417. The sequence TGAGGT displayed a binding signal of 0.646. With TCAGCG, the binding signal came to 0.799. Regarding GCGGGT, the binding signal stood at 0.575.

As for GCATCG, the binding signal came out at 0.833.

The sequence GAGGGC had a binding signal of 0.659. In turn, GAGTTG gave a binding signal of 0.488. TGCGGG showed a binding signal of 0.701.

Consider GCCAGC, for which the binding signal was 0.771. The figure for GCCGTT is 0.802. On to GAGTGT, for which the binding signal amounted to 0.545.

With AGTTGA, the binding signal is 0.838. GAGATA displayed a binding signal of 0.615.

Sequence CAGCAG displayed a binding signal of 0.787. For GAAGAC, the binding signal is 0.868. The sequence TCAGAG returned a binding signal of 0.687. As to ACAGCG, the binding signal came to 0.754. For the sequence GGACGC, the binding signal amounted to 0.385. On to ACAGGG, for which the binding signal is 0.771. GACGAG yielded a binding signal of 0.478. AAGACA returned a binding signal of 0.946. CGAGCC: the binding signal is 0.937. In the case of TCGGCG, the binding signal is 0.458. TGTGGG had a binding signal of 0.795. Sequence GATGAG yielded a binding signal of 0.867. Turning to TGAGGC, the binding signal was 0.457. The sequence GACGTA returned a binding signal of 0.735. Sequence GTGATT came in with a binding signal of 0.779.

Regarding TCGGTT, the binding signal turned out to be 0.889. The sequence TGTGTC yielded a binding signal of 0.731. The figure for GATCAG is 0.725; for GGCTGG it is 0.759. The figure for CGTCAG is 0.847; for GACAGA it is 0.631.

Turning to GGCATG, the binding signal amounted to 0.819.
